According to PubChem BioAssay AID1487 (National Center for Advancing Translational Sciences (NCATS), 2009):
The list shows a part of the results. The main result of the screen is listed elsewhere. These columns were measured beside it and carry no call. Compounds called inactive in the main read-out are mostly missing here. Potencies come from curve fits of mixed quality, noted in brackets.

Experiment: qHTS Assay for Modulators of Lamin A Splicing
Conditions: HeLa LMNA splicing GFP/RFP minigene ratio, 48 h
Procedure, shortened: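 Read-out is the ratio of GFP to DsRed2 object intensity, acquired by 488 nm laser-scanning cytometry on HeLa lamin A-EGFP minigene reporter cells. Compound incubation 48 hrs at 37 °C in Opti-MEM with 2% FBS; DMSO 0.5% final.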

[1] = measured here: RFP viability control channel
[2] = measured here: GFP splicing reporter channel

SMILES | AC50 [1] | AC50 [2]
O=C(CSc1nnnn1C1CCCCC1)N1c2ccccc2Sc2ccccc21 | 31.6 µM [rising, single point] | –
CCS(=O)(=O)N1CCN(CC(=O)NC2CCCCC2)CC1 | – | 0.794 µM [rising, single point]
CCCCOc1ccc(-c2nn(-c3ccccc3)cc2C2NC(=O)NC(C)=C2C(=O)OC)cc1 (centres undefined) | 22.4 µM [falling, single point] | 20 µM [falling, single point]
Nc1nnc(CC(=O)N/N=C/c2cc([N+](=O)[O-])cc(Br)c2O)s1 | – | 0.224 µM [rising, single point]
COc1ccccc1NC(=O)C1=C(C)Nc2c(C(=O)Nc3ccc(F)cc3)cnn2C1c1cccc([N+](=O)[O-])c1 (centres undefined) | – | 8.91 µM [falling, full curve, poor fit]
CCCCc1n[nH]c2c1/C(=N/O)CC(c1ccccc1)C2 (centres undefined) | 35.5 µM [falling, single point] | 11.2 µM [falling, partial curve]
Cc1ccc2nsnc2c1NC(=O)COc1ccccc1F | – | 0.0112 µM [rising, full curve, poor fit]
Cc1nc(NC(=O)c2ccccc2)sc1Cc1ccc2c(c1)OCO2 | 35.5 µM [rising, single point] | 28.2 µM [rising, single point]
Cc1cccc(N2CCN(c3ncnc4c3nc3n4CCCCC3)CC2)c1C | 35.5 µM [rising, single point] | –
CC(=O)c1cn(CC(=O)Nc2ccccc2)c2ccccc12 | 6.31 µM [rising, single point] | 3.16 µM [rising, single point]
Cc1csc(-c2coc3cc(O)cc(C)c3c2=O)n1 | 20 µM [rising, single point] | 31.6 µM [rising, single point]
O=C(COc1ccccc1)N(Cc1cc2ccccc2[nH]c1=O)CC1CCCO1 (centres undefined) | – | 0.00501 µM [rising, full curve, poor fit]
CCCCC(=O)Nc1ccc(C(=O)OCc2cc(=O)n3nc(C4CC4)sc3n2)cc1 | – | 0.355 µM [falling, full curve]
O=C(C[n+]1cc(-c2ccc(F)cc2)n2c1CCC2)Nc1nc(-c2ccc(F)cc2)cs1 | 14.1 µM [rising, partial curve, poor fit] | 35.5 µM [rising, single point]
COC1=C(Nc2ccc(C)cc2)C(=O)c2ccccc2C1=O | 31.6 µM [rising, single point] | 22.4 µM [rising, single point]
Cc1ccc(-c2nc3sc(C#N)c(N)n3c(=O)c2C#N)cc1 | 4.47 µM [falling, full curve, poor fit] | –
C=CCN1CCc2nc(N)sc2CC1 | 35.5 µM [rising, single point] | –
Cc1c(CNC(=O)c2nn3c(c2Cl)NC(c2ccccc2)CC3C(F)(F)F)cnn1C (centres undefined) | 17.8 µM [rising, single point] | –
COCCCNC(=S)N(Cc1ccccc1)Cc1ccc(F)cc1 | – | 17.8 µM [falling, partial curve, poor fit]
CCN(CC)c1ccc(C(=O)NCc2ccc3c(c2)CCN3C(C)=O)cc1 | 2.51 µM [falling, partial curve, poor fit] | –
CCNc1nc(NCC)n2c(SCC(=O)Nc3ccccc3)nnc2n1 | – | 2.24 µM [falling, full curve, poor fit]
O=C(Nc1ccc(O)cc1)c1cc2n(n1)C(C(F)(F)F)CC(c1ccco1)N2 (centres undefined) | 17.8 µM [rising, single point] | –
COc1ccc(CC(=O)Nc2cccc(-c3nnc(-c4ccccc4)o3)c2)cc1OC | 2.82 µM [rising, single point] | 35.5 µM [falling, single point]
Cc1ccc2nc(N/C(N)=N/S(=O)(=O)c3ccc([N+](=O)[O-])cc3)nc(C)c2c1 | 0.631 µM [rising, partial curve] | –
O=C(Cc1ccc(S(=O)(=O)N2CCCCC2)s1)Nc1ccc(F)cc1F | 14.1 µM [rising, single point] | –
Cc1nc2ccccc2n1CCc1nc2c3ccccc3nc(SCC(=O)Nc3ccc(C(C)C)cc3)n2n1 | 20 µM [falling, partial curve, poor fit] | –
CCCN(CCC)S(=O)(=O)c1ccc(C(=O)Nc2nnc(-c3cccc(OC)c3)o2)cc1 | 1.12 µM [rising, full curve] | 10 µM [rising, partial curve, poor fit]

Single records, as listed above.
`Cc1ccc(-c2nc3sc(C#N)c(N)n3c(=O)c2C#N)cc1` as listed: AC50 [1]: 4.47 µM [falling, full curve, poor fit]
`COc1ccccc1NC(=O)C1=C(C)Nc2c(C(=O)Nc3ccc(F)cc3)cnn2C1c1cccc([N+](=O)[O-])c1` (centres undefined) as listed: AC50 [2]: 8.91 µM [falling, full curve, poor fit]

Continued:

SMILES | AC50 [1] | AC50 [2]
O=C(Nc1nnc(SCc2ccc(F)cc2)s1)c1ccccn1 | 35.5 µM [rising, single point] | –
O=C(O)CCN1c2ccccc2Sc2ccccc21 | 0.398 µM [rising, partial curve, poor fit] | 0.398 µM [rising, partial curve]
CCCOc1ccc(C(=O)C(CN2CCCC2)c2ccccc2)cc1 (centres undefined) | 35.5 µM [falling, single point] | –
CCCc1ccc(NC(=O)C2CCN(c3cnccn3)CC2)cc1 | 35.5 µM [rising, single point] | –
Cc1csc(SCC(=O)Nc2cc(C(C)(C)C)nn2-c2ccccc2)n1 | 10 µM [rising, partial curve, poor fit] | –
CCNC(=S)N1CCc2cc(OC)c(OC)cc2C1COc1ccc(OC)cc1 (centres undefined) | 35.5 µM [rising, single point] | –
CN(Cc1ccco1)c1nc(-c2ccoc2)nc2ccccc12 | 15.8 µM [falling, single point] | 11.2 µM [falling, partial curve, poor fit]
CCN1CCN(C(c2ccccc2)c2c(O)cc(C)n(CCOC)c2=O)CC1 (centres undefined) | – | 0.631 µM [rising, full curve, poor fit]
CSc1cccc(NC(=O)Cn2nnc(C(=O)NCCc3ccccc3)c2N)c1 | 0.708 µM [falling, partial curve] | –
CS(=O)(=O)N(CC(=O)N1CCN(c2ccccc2)CC1)c1ccc(Cl)c(C(F)(F)F)c1 | 31.6 µM [rising, single point] | –
COc1cc(/C=N/NC(N)=S)cc(Br)c1OCc1ccccc1F | 31.6 µM [rising, single point] | 12.6 µM [rising, partial curve]
CC1Cc2nc(SCC(=O)c3ccccc3)n(Cc3ccccc3)c(=O)c2S1 (centres undefined) | 35.5 µM [rising, single point] | –
Cc1noc(C)c1-c1ccc2ncnc(NCc3ccccc3)c2c1 | 11.2 µM [rising, partial curve] | 0.891 µM [falling, full curve, poor fit]
C=CCOc1ccc(/C=N/NC(=O)CN(c2cc(Cl)ccc2OC)S(=O)(=O)c2ccc(C)c([N+](=O)[O-])c2)cc1 | 6.31 µM [rising, single point] | –
Cc1cc(C)c2nc(NC(=O)[C@@H](NC(=O)c3cccc(S(=O)(=O)N4CCOCC4)c3)C(C)C)sc2c1 | 20 µM [rising, single point] | 14.1 µM [rising, single point]
CC1CC(N(C(=O)c2ccccc2Cl)c2ccccc2)c2ccccc2N1 (centres undefined) | – | 12.6 µM [rising, partial curve]
Cc1cc(C)cc(N2CCn3c2nc2c3c(=O)n(CCc3ccccc3)c(=O)n2C)c1 | – | 7.94 µM [falling, full curve, poor fit]
Cc1ccc(NCC(=O)N/N=C\c2ccc([N+](=O)[O-])o2)cc1 | 35.5 µM [falling, single point] | 35.5 µM [falling, single point]
CCCCSc1nc2ccc(Nc3nc(N4CCOCC4)nc(N4CCOCC4)n3)cc2s1 | 28.2 µM [falling, partial curve] | 35.5 µM [falling, single point]
Cc1ccc(/C=N/Nc2nc3ccccc3s2)o1 | 12.6 µM [rising, partial curve] | –
Cc1cccc(N2CCN(C(=O)c3ccoc3C)CC2)c1C | 7.08 µM [rising, partial curve, poor fit] | 2.82 µM [rising, partial curve, poor fit]
CN(C)C(=O)c1ccc(-c2cc(Nc3ccccc3)ncn2)cc1 | – | 17.8 µM [falling, partial curve]
COC(=O)c1ccc(OCCOCCOc2cccc3ccc(C)nc23)cc1 | 11.2 µM [rising, single point] | 8.91 µM [rising, single point]
O=C(O)c1ccc2c(c1)C(=O)N(NC(=O)c1ccc(O)cc1)C2=O | 0.0794 µM [falling, full curve, poor fit] | 0.0224 µM [falling, full curve]
CCN(Cc1ccccc1)S(=O)(=O)c1cc(C(=O)NC(C)C2CC3CCC2C3)ccc1OC (centres undefined) | 15.8 µM [rising, single point] | –
Oc1cccc(Nc2ncnc3sc4c(c23)CCCC4)c1 | – | 10 µM [falling, partial curve]
CC[C@]1([C@H]2O[C@@H]([C@@H]3O[C@](O)(CO)[C@@H](C)C[C@H]3C)C[C@H]2C)CC[C@@H]([C@]2(C)CC[C@@]3(C[C@@H](O)[C@@H](C)[C@@H]([C@H](C)[C@H](OC)[C@H](C)C(=O)O)O3)O2)O1 | 0.447 µM [falling, full curve, poor fit] | 0.447 µM [falling, full curve, poor fit]
